According to article PMC4991666:
No constants are given. Whether binding was seen depends on the method and setting. Binding seen in cells or lysates may run through a third protein. Binding can be weak; no strength is given. For part of these data: Tags and fused reporters may be left off the sequences shown. Blank lines part the entries; values can stand above or below the molecule they belong to.

Legend:
[1] = molecular target: T1, Kin1:GFP (Kindlin 1 fused to GFP) (UniProt Q9BQL6); test: pull-down; GFP pull down with GFP-Trap agarose beads from 0.25-1 mg lysate (NP40 buffer: 25 mM Tris, 150 mM NaCl, 0.5% NP40, pH 7.6) of cells expressing Kin1:GFP or GFP, room temperature 30-45 min, blots of the bound proteins; also after treatment of the cells with DMSO, tubacin, BI2536 or nocodazole
T1 sequence: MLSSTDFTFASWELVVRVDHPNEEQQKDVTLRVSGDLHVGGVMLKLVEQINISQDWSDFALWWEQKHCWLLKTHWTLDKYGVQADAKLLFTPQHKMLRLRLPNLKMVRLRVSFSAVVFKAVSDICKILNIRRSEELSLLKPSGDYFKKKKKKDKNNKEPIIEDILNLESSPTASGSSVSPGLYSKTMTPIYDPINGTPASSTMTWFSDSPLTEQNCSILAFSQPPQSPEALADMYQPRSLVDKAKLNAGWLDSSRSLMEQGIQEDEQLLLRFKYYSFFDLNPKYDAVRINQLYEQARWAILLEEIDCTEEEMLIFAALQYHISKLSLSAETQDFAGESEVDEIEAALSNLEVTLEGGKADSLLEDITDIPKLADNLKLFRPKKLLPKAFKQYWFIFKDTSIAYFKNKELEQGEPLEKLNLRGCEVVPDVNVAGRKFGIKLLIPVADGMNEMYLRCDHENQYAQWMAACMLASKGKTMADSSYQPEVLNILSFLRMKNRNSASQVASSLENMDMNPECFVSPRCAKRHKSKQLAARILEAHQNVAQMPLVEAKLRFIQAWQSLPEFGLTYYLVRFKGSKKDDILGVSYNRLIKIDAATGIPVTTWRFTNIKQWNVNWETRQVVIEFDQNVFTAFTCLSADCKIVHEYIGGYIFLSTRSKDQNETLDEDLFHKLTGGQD

[2] = molecular target: alpha-tubulin, endogenous (human (endogenous in MDA-MB-231)); test: co-IP; lysate (NP40 buffer) incubated with agarose beads pre-conjugated with anti-HDAC6, anti-al-tub or anti-ac-tub antibody, room temperature 30-45 min; blot for endogenous Kin1

binding [1]: binds
Molecule: alpha-tubulin, endogenous (human (endogenous in MDA-MB-231))

binding [1]: no binding
Molecule: p38, endogenous (human (endogenous in MDA-MB-231)) (enzyme)

binding [2]: binds
B1: Kindlin 1 (Kin1), endogenous (protein, UniProt Q9BQL6 1-677)
chain: T1 sequence
